{"source": "patent US20040192652A1", "about": "“Pharmaceutical combinations and methods for the treatment of leukemia” (priority 2002, published 2004)", "assay_in_all_cases": "cells", "key": {"KBM-7 cells": {"system": "KBM-7 cells", "conditions": "Homo sapiens, KBM-7, read-out: effective dose of STI-571 which kills 50% of cells"}, "KBM5-STI^R1.0 cells": {"system": "KBM5-STI^R1.0 cells", "conditions": "Homo sapiens, read-out: effective dose of STI-571 which killed 50% of cells"}, "KBM-5 cells": {"system": "KBM-5 cells", "conditions": "Homo sapiens, KBM5, read-out: effective dose of STI-571 which kills 50% of cells"}, "KBM7-STI^R1.0 cells": {"system": "KBM7-STI^R1.0 cells", "conditions": "Homo sapiens, read-out: effective dose of STI-571 which killed 50% of cells"}}, "note": "Structures can show the parent of a compound that is named as a salt.", "data": [{"compound": "Cc1ccc(NC(=O)c2ccc(CN3CCN(C)CC3)cc2)cc1Nc1nccc(-c2cccnc2)n1", "note": "[STI-571, imatinib mesylate]", "values": [{"measurement": "IC50", "setting": "KBM-7 cells", "result": 0.3, "unit": "µM"}, {"measurement": "IC50", "setting": "KBM5-STI^R1.0 cells", "result": 10, "unit": "µM"}, {"measurement": "IC50", "setting": "KBM-5 cells", "result": 0.6, "unit": "µM"}, {"measurement": "IC50", "setting": "KBM7-STI^R1.0 cells", "result": 3, "unit": "µM"}]}]}
